Changes are numbered by the printed parent chain. In names and notes the source's numbering stands. No constants are given. Whether binding was seen depends on the method and setting. In cells and extracts the contact can be indirect. Some results given as binding are weak or reduced against the parent protein; the word gives no strength. Tags and fused reporters may be left off the sequences shown.
T1: Myc-Mer (Drosophila) (UniProt Q24564)
T1 sequence: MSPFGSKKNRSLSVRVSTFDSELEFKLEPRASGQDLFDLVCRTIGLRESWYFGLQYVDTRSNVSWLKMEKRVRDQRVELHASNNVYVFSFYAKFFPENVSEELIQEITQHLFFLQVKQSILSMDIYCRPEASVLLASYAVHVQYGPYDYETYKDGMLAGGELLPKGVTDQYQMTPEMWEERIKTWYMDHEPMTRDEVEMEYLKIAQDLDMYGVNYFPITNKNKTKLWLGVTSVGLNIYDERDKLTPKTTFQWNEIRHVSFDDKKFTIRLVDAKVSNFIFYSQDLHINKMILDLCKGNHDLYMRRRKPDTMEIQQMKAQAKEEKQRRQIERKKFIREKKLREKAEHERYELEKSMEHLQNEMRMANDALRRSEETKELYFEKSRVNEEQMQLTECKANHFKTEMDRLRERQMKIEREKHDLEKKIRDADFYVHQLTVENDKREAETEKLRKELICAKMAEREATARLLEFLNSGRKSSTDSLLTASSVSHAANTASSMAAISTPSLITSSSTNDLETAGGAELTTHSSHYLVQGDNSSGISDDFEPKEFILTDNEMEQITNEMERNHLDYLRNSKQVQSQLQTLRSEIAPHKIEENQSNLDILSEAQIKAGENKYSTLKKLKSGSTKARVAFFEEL

By UniProt entry, the sequences of proteins in these tests, tags left out. Where a name states a change or a piece, a line headed by the entry shows the natural chain unless it says otherwise. Chains listed by the source or under a name are the forms on record and can include a tag or linker.
UniProt Q7KN62: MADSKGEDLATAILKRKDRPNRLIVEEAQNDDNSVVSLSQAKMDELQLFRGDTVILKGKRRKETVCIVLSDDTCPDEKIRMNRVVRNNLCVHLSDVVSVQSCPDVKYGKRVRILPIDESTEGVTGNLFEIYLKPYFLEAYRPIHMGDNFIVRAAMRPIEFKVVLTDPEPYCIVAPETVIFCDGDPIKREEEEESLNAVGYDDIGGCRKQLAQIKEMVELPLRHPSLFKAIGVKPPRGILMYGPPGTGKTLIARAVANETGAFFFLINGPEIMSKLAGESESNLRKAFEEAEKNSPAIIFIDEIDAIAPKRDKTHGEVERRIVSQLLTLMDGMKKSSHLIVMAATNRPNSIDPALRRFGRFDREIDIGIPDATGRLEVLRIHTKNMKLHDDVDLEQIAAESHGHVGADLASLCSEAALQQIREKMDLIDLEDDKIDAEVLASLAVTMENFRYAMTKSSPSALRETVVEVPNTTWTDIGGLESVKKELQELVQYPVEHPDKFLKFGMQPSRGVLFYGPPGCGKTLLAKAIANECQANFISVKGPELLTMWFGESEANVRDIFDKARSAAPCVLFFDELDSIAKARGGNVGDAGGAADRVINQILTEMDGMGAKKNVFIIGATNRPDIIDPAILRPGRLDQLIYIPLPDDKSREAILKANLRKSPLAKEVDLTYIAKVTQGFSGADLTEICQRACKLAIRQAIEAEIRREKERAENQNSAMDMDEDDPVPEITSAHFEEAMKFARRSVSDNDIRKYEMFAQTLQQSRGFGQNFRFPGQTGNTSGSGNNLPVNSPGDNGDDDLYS
Fg-Ter94AA (Q7KN62, form named): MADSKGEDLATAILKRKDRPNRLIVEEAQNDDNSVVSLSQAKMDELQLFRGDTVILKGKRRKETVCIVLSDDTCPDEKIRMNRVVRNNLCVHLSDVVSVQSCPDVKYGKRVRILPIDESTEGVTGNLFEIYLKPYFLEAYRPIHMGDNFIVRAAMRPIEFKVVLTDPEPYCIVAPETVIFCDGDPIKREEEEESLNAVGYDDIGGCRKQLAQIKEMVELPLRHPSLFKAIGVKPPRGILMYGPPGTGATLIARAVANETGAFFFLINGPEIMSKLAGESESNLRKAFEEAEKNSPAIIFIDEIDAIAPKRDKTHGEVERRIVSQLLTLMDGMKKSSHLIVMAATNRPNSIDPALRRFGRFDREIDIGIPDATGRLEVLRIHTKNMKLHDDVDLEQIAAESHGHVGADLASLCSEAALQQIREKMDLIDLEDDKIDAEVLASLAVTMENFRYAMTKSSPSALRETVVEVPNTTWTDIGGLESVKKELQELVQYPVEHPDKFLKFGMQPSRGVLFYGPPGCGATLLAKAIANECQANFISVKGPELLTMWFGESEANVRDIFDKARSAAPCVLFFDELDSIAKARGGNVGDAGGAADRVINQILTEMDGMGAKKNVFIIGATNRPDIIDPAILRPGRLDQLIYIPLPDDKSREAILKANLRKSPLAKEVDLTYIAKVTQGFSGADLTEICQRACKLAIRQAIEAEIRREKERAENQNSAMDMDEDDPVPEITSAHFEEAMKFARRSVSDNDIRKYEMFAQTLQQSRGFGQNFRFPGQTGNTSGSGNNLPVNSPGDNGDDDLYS

T2: Fg-Mer^1-600 (Drosophila) (UniProt Q24564)
T2 sequence: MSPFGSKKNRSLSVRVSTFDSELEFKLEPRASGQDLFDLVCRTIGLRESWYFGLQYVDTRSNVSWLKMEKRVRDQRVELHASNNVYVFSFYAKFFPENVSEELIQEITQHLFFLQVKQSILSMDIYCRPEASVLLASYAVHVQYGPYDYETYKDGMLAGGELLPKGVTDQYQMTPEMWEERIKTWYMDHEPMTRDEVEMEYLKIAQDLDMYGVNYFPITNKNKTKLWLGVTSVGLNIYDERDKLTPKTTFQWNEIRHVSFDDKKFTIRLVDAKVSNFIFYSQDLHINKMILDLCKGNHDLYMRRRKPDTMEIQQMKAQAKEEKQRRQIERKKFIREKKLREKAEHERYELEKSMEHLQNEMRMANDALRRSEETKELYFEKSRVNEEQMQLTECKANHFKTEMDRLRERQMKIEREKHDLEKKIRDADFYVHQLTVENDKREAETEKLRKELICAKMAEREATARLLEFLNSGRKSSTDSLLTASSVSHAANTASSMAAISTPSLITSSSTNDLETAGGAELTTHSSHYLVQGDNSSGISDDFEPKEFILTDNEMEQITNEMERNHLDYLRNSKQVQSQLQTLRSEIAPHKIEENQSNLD

B1: Myc-Mer-L135P (protein, UniProt Q24564 1-635)
chain: T1 sequence with L135P
B2: Myc-Wts (protein, UniProt Q9VA38 1-1105)
chain: MHPAGEKRGGRPNDKYTAEALESIKQDLTRFEVQNNHRNNQNYTPLRYTATNGRNDALTPDYHHAKQPMEPPPSASPAPDVVIPPPPAIVGQPGAGSISVSGVGVGVVGVANGRVPKMMTALMPNKLIRKPSIERDTASSHYLRCSPALDSGAGSSRSDSPHSHHTHQPSSRTVGNPGGNGGFSPSPSGFSEVAPPAPPPRNPTACSAATPPPPVPPTSQAYVKRRSPALNNRPPAIAPPTQRGNSPVITQNGLKNPQQQLTQQLKSLNLYPGGGSGAVVEPPPPYLIQGGAGGAAPPPPPPSYTASMQSRQSPTQSQQSDYRKSPSSGIYSATSAGSPSPITVSLPPAPLAKPQPRVYQARSQQPIIMQSVKSTQVQKPVLQTAVAPQSPSSASASNSPVHVLAAPPSYPQKSAAVVQQQQQAAAAAHQQQHQHQQSKPPTPTTPPLVGLNSKPNCLEPPSYAKSMQAKAATVVQQQQQQQQQQQQVQQQQVQQQQQQQQQQLQALRVLQAQAQRERDQRERDQRERERDQQKLANGNPGRQMLPPPPYQSNNNNNSEIKPPSCNNNNIQISNSNLATTPPIPPAKYNNNSSNTGANSSGGSNGSTGTTASSSTSCKKIKHASPIPERKKISKEKEEERKEFRIRQYSPQAFKFFMEQHIENVIKSYRQRTYRKNQLEKEMHKVGLPDQTQIEMRKMLNQKESNYIRLKRAKMDKSMFVKLKPIGVGAFGEVTLVSKIDTSNHLYAMKTLRKADVLKRNQVAHVKAERDILAEADNNWVVKLYYSFQDKDNLYFVMDYIPGGDLMSLLIKLGIFEEELARFYIAEVTCAVDSVHKMGFIHRDIKPDNILIDRDGHIKLTDFGLCTGFRWTHNSKYYQENGNHSRQDSMEPWEEYSENGPKPTVLERRRMRDHQRVLAHSLVGTPNYIAPEVLERSGYTQLCDYWSVGVILYEMLVGQPPFLANSPLETQQKVINWEKTLHIPPQAELSREATDLIRRLCASADKRLGKSVDEVKSHDFFKGIDFADMRKQKAPYIPEIKHPTDTSNFDPVDPEKLRSNDSTMSSGDDVDQNDRTFHGFFEFTFRRFFDDKQPPDMTDDQAPVYV
B3: Myc-Mer-L36R (protein, UniProt Q24564 1-635)
chain: T1 sequence with L36R
B4: Myc-Mer-F52S (protein, UniProt Q24564 1-635)
chain: T1 sequence with F52S
B5: Myc-Mer-L54P (protein, UniProt Q24564 1-635)
chain: T1 sequence with L54P
B6: Myc-Yki (protein, UniProt Q45VV3 1-395)
chain: MLTTMSASSNTNSLIEKEIDDEDMLSPIKSNNLVVRVNQDTDDNLQALFDSVLNPGDAKRPLQLPLRMRKLPNSFFTPPAPSHSRANSADSTYDAGSQSSINIGNKASIVQQPDGQSPIAAIPQLQIQPSPQHSRLAIHHSRARSSPASLQQNYNVRARSDAAAANNPNANPSSQQQPAGPTFPENSAQEFPSGAPASSAIDLDAMNTCMSQDIPMSMQTVHKKQRSYDVISPIQLNRQLGALPPGWEQAKTNDGQIYYLNHTTKSTQWEDPRIQYRQQQQILMAERIKQNDVLQTTKQTTTSTIANNLGPLPDGWEQAVTESGDLYFINHIDRTTSWNDPRMQSGLSVLDCPDNLVSSLQIEDNLCSNLFNDAQAIVNPPSSHKPDDLEWYKIN
B7: HA-Hpo (protein, UniProt Q8T0S6 1-669)
chain: MSEPEVTSVVDMKSPNISSSCSFFKLKKLSEESLLQPPEKVFDIMYKLGEGSYGSVYKAVHKESSSIVAIKLVPVESDLHEIIKEISIMQQCDSPYVVRYYGSYFKQYDLWICMEYCGAGSVSDIMRLRKKTLTEDEIATILSDTLQGLVYLHLRRKIHRDIKAANILLNTEGYAKLADFGVAGQLTDTMAKRNTVIGTPFWMAPEVIEEIGYDCVADIWSLGITALEMAEGKPPYGEIHPMRAIFMIPQKPPPSFREPDRWSTEFIDFVSKCLVKEPDDRATATELLEHEFIRNAKHRSILKPMLEETCAIREQQRANRSFGGVLAASQAKSLATQENGMQQHITDNAFMEDPGTLVPEKFGEYQQSSASDATMIAHAEQGVDEGTLGPGGLRNLSKAAAPAAASSAASPLDMPAVDSGTMVELESNLGTMVINSDSDDSTTAKNNDDQKPRNRYRPQFLEHFDRKNAGDGRGDEKPIATEYSPAAAEQQQQQQQQQQQQQQDEQHLASGANDLNNWEHNMEMQFQQISAINQYGLQQHQQQQQVLMAYPLMNEQLIALNNQPNLLLSNAAPMGQQGIPAAAPAQPPPAYQNQHMHTQSHAYVEGEFEFLKFLTFDDLNQRLCNIDHEMELEIEQLNKKYNAKRQPIVDAMNAKRKRQQNINNNLIKI

Key:
Myc-Mer (Drosophila) = target: T1, Myc-Mer (Drosophila); experiment: co-IP; HEK-293T cells co-transfected with two tagged constructs (PEI), collected 48 h after transfection; IP with anti-Fg or anti-Myc, immunoblot
Fg-Ter94 (Drosophila) = Fg-Ter94 (Drosophila) (UniProt Q7KN62); experiment: as above
[1] = target: T2, Fg-Mer^1-600 (Drosophila); experiment: co-IP; HEK-293T cells co-transfected with two tagged partners, with or without co-expressed HA-Ter94 (Fig. 7a-c) or HA-Ub-K63 (Fig. 7d-e); IP and immunoblot

| Molecule | binding (Fg-Ter94 (Drosophila)) | further results |
| --- | --- | --- |
| Fg-Ter94AA (from UniProt Q7KN62 1-801) |  | binding (Myc-Mer (Drosophila)): binds |
| B1 | binds |  |
| B2 |  | binding [1]: binds |
| B3 | binds |  |
| B4 | binds |  |
| B5 | binds |  |
| B6 | no binding |  |
| B7 | no binding |  |
